Results from article PMC9020517.
Results are given in words; binding and its absence hold for the method and conditions named. Binding seen in cells or lysates may run through a third protein. Some binding calls cover weakened binding; strength is not graded here.

Chains of the proteins cited; added tags and fusions are not shown. Residues count along the entry.
UniProt Q15843, residues 1-76: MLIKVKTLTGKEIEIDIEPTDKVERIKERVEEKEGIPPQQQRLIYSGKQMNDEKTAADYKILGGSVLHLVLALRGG
UniProt Q9UBN7: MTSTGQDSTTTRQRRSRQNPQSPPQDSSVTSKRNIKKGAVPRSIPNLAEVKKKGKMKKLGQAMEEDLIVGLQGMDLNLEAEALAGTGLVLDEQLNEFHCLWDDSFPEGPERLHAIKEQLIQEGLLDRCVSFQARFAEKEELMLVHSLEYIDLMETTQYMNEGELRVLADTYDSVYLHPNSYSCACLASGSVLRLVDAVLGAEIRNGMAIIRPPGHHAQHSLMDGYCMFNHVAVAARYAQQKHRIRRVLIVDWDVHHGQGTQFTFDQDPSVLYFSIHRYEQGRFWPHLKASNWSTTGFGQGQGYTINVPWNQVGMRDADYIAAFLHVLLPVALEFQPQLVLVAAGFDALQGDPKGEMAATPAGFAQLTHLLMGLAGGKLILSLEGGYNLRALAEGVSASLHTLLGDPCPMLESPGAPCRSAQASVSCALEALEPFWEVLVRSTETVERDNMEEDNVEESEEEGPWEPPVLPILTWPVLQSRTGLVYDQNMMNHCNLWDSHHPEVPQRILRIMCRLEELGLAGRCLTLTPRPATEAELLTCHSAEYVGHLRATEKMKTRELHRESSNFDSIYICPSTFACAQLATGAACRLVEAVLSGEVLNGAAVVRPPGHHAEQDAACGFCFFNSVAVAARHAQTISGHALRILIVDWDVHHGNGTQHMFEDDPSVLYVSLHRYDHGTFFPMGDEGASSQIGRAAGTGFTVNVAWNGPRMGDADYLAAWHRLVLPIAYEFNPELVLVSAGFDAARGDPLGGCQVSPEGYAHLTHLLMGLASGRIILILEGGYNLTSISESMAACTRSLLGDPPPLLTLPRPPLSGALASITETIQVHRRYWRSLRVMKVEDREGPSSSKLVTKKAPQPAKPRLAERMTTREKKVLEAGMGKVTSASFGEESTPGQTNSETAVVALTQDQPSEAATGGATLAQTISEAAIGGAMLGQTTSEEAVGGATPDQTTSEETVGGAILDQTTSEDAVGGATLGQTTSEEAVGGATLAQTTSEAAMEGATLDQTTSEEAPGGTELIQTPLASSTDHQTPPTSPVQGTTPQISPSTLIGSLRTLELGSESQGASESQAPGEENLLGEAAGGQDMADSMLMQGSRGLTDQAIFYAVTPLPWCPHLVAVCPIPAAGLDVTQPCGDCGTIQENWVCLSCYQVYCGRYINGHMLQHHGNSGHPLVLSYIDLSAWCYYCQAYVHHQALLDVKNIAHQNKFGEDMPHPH

Biological target: Strep-pNEDD8 (human NEDD8 1-76 phosphorylated at S65, N-terminal Strep-tag II) (human) (UniProt Q15843)
Assay: pull-down; affinity enrichment as for AE-MS with Strep-Ub/NEDD8 variants as bait and HEK293T cell lysate; 10% of the eluate analysed by Western blot with antibodies specific for the respective protein; only the target purified

HDAC6 (from UniProt Q9UBN7 1-1215)
binding: binds
